Measured values taken from doi:10.1101/251405.
These are yes or no findings as the source states them, for the method shown. In cells and extracts the contact can be indirect. Some binding calls cover weakened binding; strength is not graded here.

Amino acid sequences for entries named in this document (tags omitted).
UniProt Q61768: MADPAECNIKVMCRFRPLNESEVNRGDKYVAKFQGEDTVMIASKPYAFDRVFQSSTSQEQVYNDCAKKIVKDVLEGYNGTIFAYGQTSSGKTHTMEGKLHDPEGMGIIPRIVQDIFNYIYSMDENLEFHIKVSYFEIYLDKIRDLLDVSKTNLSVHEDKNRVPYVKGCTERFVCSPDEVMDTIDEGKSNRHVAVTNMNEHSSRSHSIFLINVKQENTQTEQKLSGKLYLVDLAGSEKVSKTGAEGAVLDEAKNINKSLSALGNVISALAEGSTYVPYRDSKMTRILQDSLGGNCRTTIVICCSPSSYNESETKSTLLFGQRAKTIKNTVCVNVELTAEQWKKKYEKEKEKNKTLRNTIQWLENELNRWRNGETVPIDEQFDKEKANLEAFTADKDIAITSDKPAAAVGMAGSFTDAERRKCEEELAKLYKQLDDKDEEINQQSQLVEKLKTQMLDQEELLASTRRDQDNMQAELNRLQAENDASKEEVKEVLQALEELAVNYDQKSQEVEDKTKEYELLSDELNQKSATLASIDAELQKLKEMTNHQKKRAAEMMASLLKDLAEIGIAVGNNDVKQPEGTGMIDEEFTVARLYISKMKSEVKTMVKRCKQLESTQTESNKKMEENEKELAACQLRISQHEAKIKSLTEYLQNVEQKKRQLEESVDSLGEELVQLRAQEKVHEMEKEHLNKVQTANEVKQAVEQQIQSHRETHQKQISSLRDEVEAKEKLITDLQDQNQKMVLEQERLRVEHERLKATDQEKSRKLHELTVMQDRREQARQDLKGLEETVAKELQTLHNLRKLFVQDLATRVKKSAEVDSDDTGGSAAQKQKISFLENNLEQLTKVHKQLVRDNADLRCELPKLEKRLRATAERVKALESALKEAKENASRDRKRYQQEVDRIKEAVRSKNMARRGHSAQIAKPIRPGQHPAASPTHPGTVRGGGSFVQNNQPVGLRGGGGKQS
UniProt Q07866: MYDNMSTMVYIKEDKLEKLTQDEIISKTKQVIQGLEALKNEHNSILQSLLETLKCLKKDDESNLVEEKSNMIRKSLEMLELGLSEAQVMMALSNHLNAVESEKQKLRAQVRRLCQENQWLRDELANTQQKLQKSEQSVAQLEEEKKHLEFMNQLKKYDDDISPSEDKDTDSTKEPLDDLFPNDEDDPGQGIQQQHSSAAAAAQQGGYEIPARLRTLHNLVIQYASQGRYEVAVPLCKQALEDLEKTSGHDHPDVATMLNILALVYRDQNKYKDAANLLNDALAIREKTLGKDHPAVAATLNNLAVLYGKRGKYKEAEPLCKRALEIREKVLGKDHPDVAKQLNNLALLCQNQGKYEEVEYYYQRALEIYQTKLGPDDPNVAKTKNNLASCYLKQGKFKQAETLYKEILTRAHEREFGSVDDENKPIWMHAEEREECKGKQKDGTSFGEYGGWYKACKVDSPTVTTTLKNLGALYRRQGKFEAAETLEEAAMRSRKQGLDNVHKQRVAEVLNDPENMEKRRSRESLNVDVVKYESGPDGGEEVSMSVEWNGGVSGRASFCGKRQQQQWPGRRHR
UniProt Q9H0B6: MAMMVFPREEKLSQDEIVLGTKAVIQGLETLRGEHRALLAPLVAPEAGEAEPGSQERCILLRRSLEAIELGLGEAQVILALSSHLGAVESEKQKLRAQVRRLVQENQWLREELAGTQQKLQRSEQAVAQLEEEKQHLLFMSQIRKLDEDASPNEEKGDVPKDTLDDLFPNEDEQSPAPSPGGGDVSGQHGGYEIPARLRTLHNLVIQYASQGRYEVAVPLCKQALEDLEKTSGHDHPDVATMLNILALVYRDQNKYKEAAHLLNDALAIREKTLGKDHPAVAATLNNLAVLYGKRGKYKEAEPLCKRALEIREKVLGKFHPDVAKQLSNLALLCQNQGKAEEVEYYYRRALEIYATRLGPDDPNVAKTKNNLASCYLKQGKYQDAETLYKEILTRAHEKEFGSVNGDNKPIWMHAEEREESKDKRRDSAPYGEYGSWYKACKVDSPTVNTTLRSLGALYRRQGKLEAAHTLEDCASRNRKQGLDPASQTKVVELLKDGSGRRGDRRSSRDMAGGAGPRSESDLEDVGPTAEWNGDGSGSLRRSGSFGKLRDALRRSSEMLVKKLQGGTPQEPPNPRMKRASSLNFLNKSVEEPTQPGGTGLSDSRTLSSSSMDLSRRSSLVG

Molecular target: full-length mKif5b-Emerald (mouse KIF5B, kinesin-1 heavy chain, fused to Emerald) (mouse) (UniProt Q61768)
Assay: pull-down

Substance | binding
kinesin light chain 1 (KLC1) (from UniProt Q07866 1-573) | binds
kinesin light chain 2 (KLC2) (from UniProt Q9H0B6 1-622) | binds
